Screen size: about 320,000 compounds; about 2,100 (0.66%) were called active. Inconclusive results, whose numbers are uncertain, are shown with a selection of clear calls. Calls come from the whole dose curve; as a rule, active = well fitted inhibition curve with a large enough effect in the signal ratio, with a control signal flat (not every such curve was filed as active); inconclusive = small, poorly fitted or top-dose-only effect, or effect the other way, or a change in a side signal; inactive = flat fitted curve, though single readings scatter; the % refers to the signal ratio. Potencies of inconclusive entries are doubtful fits and often do not repeat.
Assay: qHTS Assay for Lipid Storage Modulators in Drosophila S3 Cells
Conditions: BODIPY lipid droplet fluorescence, 18-24 h, cells fed with added oleic acid; lipid storage change, negative = inhibition: at 46.1 µM (top of the series) unless noted
Outline: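 Drosophila S3 cells got compounds at several concentrations plus oleic acid (400 uM solution). Laser-scanning cytometry with 488 nm excitation read lipid droplets at 500-530 nm and cells at 575-640 nm. Percent activity was relative to 20 uM Triacsin C.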
% is set by controls: 0 for no effect and ±100 for the full control effect; potency is the fitted concentration of half-maximal effect.

Structure (SMILES) | lipid storage change, negative = inhibition | Potency | outcome
COc1cccc(OC)c1C(=O)Nc1sc2c(c1C(N)=O)CCN(Cc1ccccc1)C2 | inconclusive: -34% |  | 
CCOC(=O)c1sc(=S)n(-c2ccccc2Cl)c1SC | inconclusive: -46.7% |  | 
O=C(Nc1ccccc1Cl)c1ccc(S(=O)(=O)NCC2CCCO2)cc1 (centres undefined) | inconclusive: 26.1% |  | 
COc1ccc(C(=O)Nc2nncs2)cc1S(=O)(=O)N1CC(c2ccccc2)CC1=O (centres undefined) | inconclusive: -4.28% [at 9.22 µM] |  | 
O=C(O)CCCCOn1ccnc1 | inconclusive: 3.86% |  | 
Cc1cc(C(=O)CSc2nc3ccccc3o2)c(C)n1C1CC1 | inconclusive: 71.7% |  | 
O=S1(=O)CCN2C(c3cccc4ccccc34)=CSC2=N1 |  | inconclusive: 2.06 µM [falling, partial curve, poor fit] | 
CCCn1c(SCC(=O)Nc2cc(S(=O)(=O)N3CCCCC3)ccc2C)n[nH]c1=O | inconclusive: 13.7% |  | 
c1csc(-c2csc(-c3cccs3)n2)c1 | inconclusive: 21.6% |  | 
O=C(NCc1cccnc1)c1ccc(CS(=O)(=O)Cc2ccc(Cl)cc2)o1 |  | inconclusive: 9.2 µM [rising, partial curve, poor fit] | 
Cc1ccc2c(c1)N(C(=O)CSc1nncn1C)C(C)(C)c1ssc(=S)c1-2 | inactive: -13.1% |  | 
Cc1nn(Cc2n[nH]c(=S)n2Cc2ccccc2)c(C)c1Cl | inconclusive: 10.3% |  | 
O=C(C1CC(=O)N(c2ccc(Br)cc2)C1)N1CCCC1 (centres undefined) | inconclusive: 52.5% |  | 
O=C(O)c1ccc(NC(=S)NC(=O)c2ccc(-c3ccc(Br)cc3)o2)cc1 |  | inconclusive: 0.517 µM [falling, full curve, poor fit] | 
CN(C(=O)CCn1c(=S)oc2ccccc21)C1CCCCC1 |  | inconclusive: 9.2 µM [activator, partial curve] | 
Cn1c(=O)c2cc(S(=O)(=O)NCCC(=O)NC3CCCCCC3)ccc2n(C)c1=O |  | inconclusive: 0.116 µM [falling, full curve, poor fit] | 
COc1cccc(NC(=O)CN2CCN(C(=O)c3ccco3)CC2)c1 | inconclusive: -12.1% |  | 
CC(=O)Nc1ccc(-c2cc(NC(C)=O)n(-c3ccccc3)n2)cc1 | inconclusive: 5.62% |  | 
CC1CN(C(=O)COC(=O)c2nn(-c3ccccc3)c(=O)c3ccccc23)CC(C)O1 (centres undefined) | inconclusive: 42.7% |  | 
NS(=O)(=O)c1ccc(NC(=O)C2(c3ccccc3)CCCC2)cc1 |  | inconclusive: 0.0046 µM [falling, full curve, poor fit] | 
O=c1sc(Nc2ccccc2)nc2ccsc12 | inconclusive: 270% |  | 
C=CCc1cccc(OC)c1OCCOCCNCCO |  | inconclusive: 23.1 µM [cytotoxic, partial curve] | 
CN(C)c1ncnc2c1ncn2C1OC(CO)C(O)C1O (centres undefined) |  | inconclusive: 3.26 µM [falling, full curve] | 
O=C1c2ccc(Cl)cc2S(=O)(=O)c2cccc(C(=O)N3CCN(c4ncc(Br)cn4)CC3)c21 |  | inconclusive: 1.84 µM [falling, single point] | 
O=C(COc1ccccc1Cl)Nn1cnnc1 | inconclusive: -40.4% |  | 
COc1ccc(Cn2c(=O)oc3ccc(C)cc32)cc1 |  | inconclusive: 6.51 µM [falling, single point] | 
O=C(N/N=C/c1cccnc1)c1ccc(NC(=O)c2cccc(Cl)c2)cc1 | inconclusive: -51.6% |  | 

Among those listed so far, these have an NH in an aromatic ring:
Structure (SMILES) | lipid storage change, negative = inhibition | Potency | outcome
CCCn1c(SCC(=O)Nc2cc(S(=O)(=O)N3CCCCC3)ccc2C)n[nH]c1=O | inconclusive: 13.7% |  | 
Cc1nn(Cc2n[nH]c(=S)n2Cc2ccccc2)c(C)c1Cl | inconclusive: 10.3% |  | 

Following part

Structure (SMILES) | lipid storage change, negative = inhibition | Potency | outcome
CCN1C(=O)C(CC(=O)Nc2ccc(F)cc2)N(Cc2ccc3c(c2)OCO3)C1=S (centres undefined) | inconclusive: 9.82% |  | 
COC(=O)c1c(NC(=O)COC(=O)c2ccc(C)s2)sc2c1CCCCC2 |  | inconclusive: 0.0206 µM [falling, full curve, poor fit] | 
c1ccc(SCCCCN2CCOCC2)cc1 |  | inconclusive: 29.1 µM [activator, single point] | 
O=[N+]([O-])c1ccc(/C=N/Nc2nc(N3CCCCC3)nc(N3CCCCC3)n2)cc1 | inactive: 11.3% |  | 
CCOc1ccccc1NC(=O)CN1CCC(NC(=O)c2ccccc2C)CC1 | inconclusive: 27.3% |  | 
CCc1n[nH]c(=O)c2cc3cc(OC)ccc3n12 | inconclusive: 496% |  | 
Cc1ccccc1NC(=O)CCc1nnc2ccc(N3CCC4(CC3)OCCO4)nn12 | inactive: -6.37% |  | 
S=C(NCc1ccco1)N1CCN(Cc2ccc(Cl)cc2Cl)CC1 |  | inconclusive: 8.2 µM [activator, partial curve, poor fit] | 
O=C(CCN1C(=O)c2ccccc2S1(=O)=O)Nc1nc2c(s1)CCCC2 |  | inconclusive: 0.517 µM [activator, single point] | 
Cc1ccc(-n2c(Cc3ccccc3)n[nH]c2=S)cc1 | inconclusive: 114% |  | 
CC1(C)Oc2ccc3ccc(=O)oc3c2C(/C=N/O)C1=O (centres undefined) | inconclusive: -50.6% |  | 
Cc1ccc(NS(=O)(=O)c2cc(-c3cc(C)no3)ccc2C(C)C)nc1 |  | inconclusive: 29.1 µM [activator, single point] | 
COc1cccc(NC(=O)c2nc(SC)ncc2Cl)c1 | inconclusive: 26.5% |  | 
O=C(NCN1CCCCC1)c1cccnc1 |  | inconclusive: 0.206 µM [falling, full curve] | 
Cc1ccc(C)n1-c1ccsc1C(=O)CC#N | inconclusive: 2.3% |  | 
CCCn1c(N)c(C(=O)CSc2nc3ccccc3c(=O)n2Cc2ccccc2)c(=O)[nH]c1=O | inconclusive: -6.22% |  | 
COc1ccc(CCn2nc(C)c([N+](=O)[O-])c2C)cc1 | inconclusive: 25.7% |  | 
CS(=O)(=O)N1CCN(C(=O)Nc2ccccc2)CC1 | inconclusive: -17.5% |  | 
CC(C)(C)c1ccc(Oc2ccc(NC(=O)c3ccccc3C(=O)O)cn2)cc1 | inconclusive: 4.16% |  | 
O=C1NC[C@H](c2ccccc2)N(CC2CCCCC2)C1=O | inconclusive: 32.7% |  | 
O=C(N/N=C/c1ccc([N+](=O)[O-])cc1)c1cc2ccccc2o1 |  | inconclusive: 0.0046 µM [rising, full curve] | 
CN(C)CCOc1ccc(Cl)cc1C(C)(C)C |  | inconclusive: 29.1 µM [cytotoxic, single point] | 
COc1ccc(-c2cccc(C(=O)N3CCOCC3)c2)cc1 | inconclusive: 17.3% |  | 
CCOC(=O)c1c(C2CCN(C(=O)OCC)CC2)nc2ccccn12 |  | inconclusive: 29.1 µM [falling, single point] | 
O=C(Nc1ccccc1C(F)(F)F)NC1CCCCCCC1 |  | inconclusive: 6.51 µM [rising, single point] | 
COC(=O)c1ccc2c(C)c(C(C)(C)O)[nH]c2c1 |  | inconclusive: 29.1 µM [activator, partial curve, poor fit] | 
Brc1ccc(-c2nc(-c3ccccn3)no2)o1 | inconclusive: 89.1% |  | 

Structure (SMILES) | lipid storage change, negative = inhibition | Potency | outcome
S=c1[nH]ncn1/N=C/c1ccc(Br)cc1 | inconclusive: 38.6% |  | 
O=C(NNC(=O)c1cnccn1)c1ccc(Cl)c(Cl)c1 | inconclusive: -48.8% |  | 
CCCN(CC(=O)Nc1cccc(Br)c1)CC(=O)Nc1ccc(F)c(F)c1F | inconclusive: -17.7% |  | 
COc1ccc(CCNC(=O)CN2CCN(S(=O)(=O)c3ccc(Cl)cc3)CC2)cc1OC | inconclusive: 97.1% |  | 
CN(CC(N)=O)S(=O)(=O)c1ccc(F)cc1 | inconclusive: -165% |  | 
O=C(Nc1cccc(F)c1)N1CCCCCC1 | inconclusive: 0.536% |  | 
CCOC(=O)c1ccc(NC(=O)COc2ccc(CNCCO)cc2OCC)cc1 | inconclusive: 16.1% |  | 
O=C(N/C=C\c1ccccc1)NCc1ccc(Cl)cc1Cl | inconclusive: -9.27% |  | 
CCc1ccccc1NC(=O)CC1S/C(=N\c2nccs2)N(CC)C1=O (centres undefined) | inconclusive: 6.97% |  | 
COc1cccc(/C=C/C(=O)c2c(O)cc(C)oc2=O)c1O |  | inconclusive: 4.11 µM [falling, single point] | 
Cc1cc(=O)[nH]c(SCC(=O)NC(C)C2CC3CCC2C3)c1C#N (centres undefined) | inconclusive: 33.1% |  | 
CC(=O)Nc1ccc(/C=C/c2noc(-c3ccccc3O)n2)cc1 | inconclusive: -72.4% |  | 
O=C(CSc1nnc(CNc2ccc(F)cc2)n1CC1CCCO1)N1CCOCC1 (centres undefined) | inconclusive: -8.87% |  | 
CC(=O)N1CCCc2cc(S(=O)(=O)N3CCCC(C)C3)ccc21 (centres undefined) | inconclusive: 38.1% |  | 
O=C(O)/C=C/C(=O)Nc1ccc2c(c1)NC(=O)CO2 | inconclusive: -35.2% |  | 
O=C(Nc1ccccc1F)C1CCCN(S(=O)(=O)c2ccccc2)C1 (centres undefined) | inconclusive: 14.7% |  | 
CN(C)c1ccc(S(=O)(=O)N2CCCCC2)cc1NC(=O)C1CSC2(C)CCC(=O)N12 (centres undefined) | inconclusive: -22.6% |  | 
COc1ccc(CCn2c(C)cc3c(c2=O)C(c2ccc4c(c2)OCO4)C(C#N)=C(N)O3)cc1OC (centres undefined) |  | inconclusive: 1.16 µM [activator, partial curve, poor fit] | 
COc1ccc(S(=O)(=O)N2CCOC23CCN(S(=O)(=O)c2ccc(F)cc2C)CC3)cc1 |  | inconclusive: 13 µM [falling, partial curve, poor fit] | 
Cc1ccc2c(c1)N(C(=O)CCC(=O)NC1CCC(C)CC1)CCO2 (centres undefined) | inconclusive: -34.7% |  | 
COCCn1nnnc1C(c1cccc(OC)c1OC)N1CCN(C2CCCCC2)CC1 (centres undefined) | inconclusive: 46.2% |  | 
COc1ccc(CN2CC(C(=O)NCC3CCCO3)CC2=O)cc1 (centres undefined) | inactive: 0.667% |  | 
CCS(=O)(=O)N1CCC(C(=O)N2CCc3ccccc3C2)CC1 | inconclusive: -37.8% |  | 
Cc1cc(NS(=O)(=O)c2ccc(NC(=O)CN3C(=O)c4ccccc4C3=O)cc2)nc(C)n1 |  |  | inactive [at 46.1 µM]
CCN(CC(=O)N1CCN(C)CC1)S(=O)(=O)c1ccc(Cl)cc1 |  | inconclusive: 6.51 µM [falling, partial curve, poor fit] | 

2 entries from above, as tab-separated lines:
Structure (SMILES)	lipid storage change, negative = inhibition	Potency	outcome
CN(CC(N)=O)S(=O)(=O)c1ccc(F)cc1	inconclusive: -165%		
O=C(Nc1cccc(F)c1)N1CCCCCC1	inconclusive: 0.536%		
